According to patent US20200369728A1, “PEPTIDOMIMETIC MACROCYCLES AND USES THEREOF” (Aileron Therapeutics, Inc., priority 2015, published 2020):
The match of structure and compound is tentative.

Protein sequences, listed by entry. Tags and fused reporters are not part of them. Residues count along the entry.
UniProt O15151, 1-125 limits assumed: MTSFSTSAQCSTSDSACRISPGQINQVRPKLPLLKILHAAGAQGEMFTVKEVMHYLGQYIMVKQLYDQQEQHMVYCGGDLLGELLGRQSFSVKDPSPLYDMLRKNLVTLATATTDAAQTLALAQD
UniProt Q00987, 1-125 limits assumed: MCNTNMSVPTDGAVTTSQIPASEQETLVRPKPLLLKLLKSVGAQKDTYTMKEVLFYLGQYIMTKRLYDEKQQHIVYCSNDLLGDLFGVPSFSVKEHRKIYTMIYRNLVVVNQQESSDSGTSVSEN

Assays:
RKO = assay: Cell viability assay (MTT), RKO; details: read-out: RKO EC50 (72 h)
RKO-E6 = assay: Cell viability assay (MTT), RKO-E6; details: read-out: RKO-E6 EC50 (72 h), RKO-E6, 72 h
MDMX = MDMX (Homo sapiens, UniProt O15151); assay: Competitive fluorescence polarization assay for MDMX; assay type: binding
SW-480 = assay: Cell viability assay (MTT), SW-480; details: read-out: SW480 EC50 (6 days), SW480, 6 days
MDM2 = MDM2 (Homo sapiens, UniProt Q00987); assay: Competitive fluorescence polarization assay for MDM2; assay type: binding; details: for Ki: read-out: Ki (MDM2)
SJSA-1 = assay: Cell viability assay (MTT), SJSA-1; details: read-out: SJSA-1 EC50 (72 h)

Question: `CC(=O)N[C@@H](CC(C)C)C(=O)N[C@H](C(=O)N[C@H](C(=O)N[C@]1(C)CCCCCCC=CCCC[C@@](C)(C(=O)N[C@@H](CO)C(N)=O)NC(=O)[C@H](CC(C)C)NC(=O)[C@H](CCC(N)=O)NC(=O)[C@H](C)NC(=O)[C@H](Cc2c[nH]c3ccccc23)NC(=O)[C@H](Cc2ccc(O)cc2)NC(=O)[C@H](Cc2cnc[nH]2)NC1=O)C(c1ccccc1)c1ccccc1)[C@@H](C)O` was tested. Which EC50 (RKO) did it give?
Answer: < 5 µM

Question: What about the EC50 (RKO-E6) of the same compound?
Answer: 15 to 30 µM

Question: What about the IC50 (MDMX; read-out: IC50 (MDMX)) of the same compound?
Answer: 10 to 100 nM

Question: What about the Ki (MDMX; read-out: Ki (MDMX)) of the same compound?
Answer: 10 to 100 nM

Question: And the EC50 (SW-480)?
Answer: < 5 µM

Question: And the IC50 (MDM2; read-out: IC50 (MDM2))?
Answer: 10 to 100 nM

Question: And the Ki (MDM2)?
Answer: < 10 nM

Question: For `CC(=O)N[C@@H](CC(C)C)C(=O)N(C)CC(=O)N[C@@H](Cc1ccccc1)C(=O)N[C@]1(C)CCCCCCC=CCCC[C@@](C)(C(=O)N[C@@H](CO)C(N)=O)NC(=O)[C@H](CC(C)C)NC(=O)[C@H](CCC(N)=O)NC(=O)[C@H](C)NC(=O)[C@H](Cc2c[nH]c3ccccc23)NC(=O)[C@H](Cc2ccc(O)cc2)NC(=O)[C@H](C)NC1=O`, which Ki (MDM2) is on record?
Answer: 10 to 100 nM

Question: And the EC50 (SJSA-1)?
Answer: < 5 µM

Question: Which EC50 (SJSA-1) does the source give for `CC(=O)N[C@@H](C)C(=O)N[C@@H](CO)C(=O)N[C@@H](CCC(N)=O)C(=O)N[C@@H](CCC(N)=O)C(=O)N[C@H](C(=O)N[C@@H](Cc1ccccc1)C(=O)N[C@]1(C)CCCCCCC=CCCC[C@@](C)(C(=O)N[C@@H](CCC(N)=O)C(=O)N[C@@H](CC(N)=O)C(N)=O)NC(=O)[C@H](CC(C)C)NC(=O)[C@H](CC(C)C)NC(=O)[C@H](CCCNC(=N)N)NC(=O)[C@H](Cc2c[nH]c3ccccc23)NC(=O)[C@H](CC(C)C)NC(=O)[C@H](CC(N)=O)NC1=O)[C@@H](C)O` here?
Answer: 15 to 30 µM

Question: `CC(=O)N[C@@H](CCC(N)=O)C(=O)N[C@@H](CO)C(=O)N[C@@H](CCC(N)=O)C(=O)N[C@@H](CCC(N)=O)C(=O)N[C@H](C(=O)N[C@@H](Cc1ccccc1)C(=O)N[C@]1(C)CCCCCCC=CCCC[C@@](C)(C(=O)N[C@@H](CCC(N)=O)C(=O)N[C@@H](CC(N)=O)C(N)=O)NC(=O)[C@H](CC(C)C)NC(=O)[C@H](CC(C)C)NC(=O)[C@H](CCCNC(=N)N)NC(=O)[C@H](Cc2c[nH]c3ccccc23)NC(=O)[C@H](CC(C)C)NC(=O)[C@H](C)NC1=O)[C@@H](C)O` was tested. Which EC50 (SJSA-1) did it give?
Answer: 5 to 15 µM
